These are yes or no findings as the source states them, for the method shown. In cells and extracts the contact can be indirect. Some binding calls cover weakened binding; strength is not graded here.

Amino acid sequences for entries named in this document (tags omitted). Residues count along the entry.
UniProt Q9NQS3, residues 58-549: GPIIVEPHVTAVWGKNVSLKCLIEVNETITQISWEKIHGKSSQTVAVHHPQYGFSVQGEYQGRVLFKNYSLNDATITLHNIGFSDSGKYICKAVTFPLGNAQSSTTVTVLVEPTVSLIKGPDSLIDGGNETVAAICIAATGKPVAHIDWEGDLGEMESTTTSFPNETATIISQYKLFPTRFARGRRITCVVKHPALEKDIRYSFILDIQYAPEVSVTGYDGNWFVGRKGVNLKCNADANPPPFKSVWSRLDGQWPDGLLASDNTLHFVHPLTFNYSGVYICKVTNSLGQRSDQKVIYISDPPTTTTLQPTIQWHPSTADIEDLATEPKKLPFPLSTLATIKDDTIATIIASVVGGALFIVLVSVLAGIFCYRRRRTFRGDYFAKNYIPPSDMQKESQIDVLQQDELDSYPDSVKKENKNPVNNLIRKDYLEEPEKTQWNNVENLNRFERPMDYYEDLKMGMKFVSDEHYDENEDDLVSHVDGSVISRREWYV

This experiment has as its target Nectin-3 (human (endogenous in the paper's human cell lines; line not stated)) (UniProt Q9NQS3). Put plainly: co-IP; cell lysate (cell line not stated) precipitated with anti-Nectin-3 antibody (A, C-19, C-terminus) or (B, K-20, internal region), 1:100, protein A/G agarose overnight; blots probed for the partners; lysis in HCMF buffer with 0.5% SDS, 0.5% Triton X-100, 2 mM CaCl2.

B1: γ-catenin (protein, UniProt P14923 1-745)
chain: MEVMNLMEQPIKVTEWQQTYTYDSGIHSGANTCVPSVSSKGIMEEDEACGRQYTLKKTTTYTQGVPPSQGDLEYQMSTTARAKRVREAMCPGVSGEDSSLLLATQVEGQATNLQRLAEPSQLLKSAIVHLINYQDDAELATRALPELTKLLNDEDPVVVTKAAMIVNQLSKKEASRRALMGSPQLVAAVVRTMQNTSDLDTARCTTSILHNLSHHREGLLAIFKSGGIPALVRMLSSPVESVLFYAITTLHNLLLYQEGAKMAVRLADGLQKMVPLLNKNNPKFLAITTDCLQLLAYGNQESKLIILANGGPQALVQIMRNYSYEKLLWTTSRVLKVLSVCPSNKPAIVEAGGMQALGKHLTSNSPRLVQNCLWTLRNLSDVATKQEGLESVLKILVNQLSVDDVNVLTCATGTLSNLTCNNSKNKTLVTQNSGVEALIHAILRAGDKDDITEPAVCALRHLTSRHPEAEMAQNSVRLNYGIPAIVKLLNQPNQWPLVKATIGLIRNLALCPANHAPLQEAAVIPRLVQLLVKAHQDAQRHVAAGTQQPYTDGVRMEEIVEGCTGALHILARDPMNRMEIFRLNTIPLFVQLLYSSVENIQRVAAGVLCELAQDKEAADAIDAEGASAPLMELLHSRNEGTATYAAAVLFRISEDKNPDYRKRVSVELTNSLFKHDPAAWEAAQSMIPINEPYGDDMDATYRPMYSSDVPLDPLEMHMDMDGDYPIDTYSDGLRPPYPTADHMLA
With B1, the binding entry was “binds”.

B2: ZO-2 (protein, UniProt Q9UDY2 1-1190)
chain: MPVRGDRGFPPRRELSGWLRAPGMEELIWEQYTVTLQKDSKRGFGIAVSGGRDNPHFENGETSIVISDVLPGGPADGLLQENDRVVMVNGTPMEDVLHSFAVQQLRKSGKVAAIVVKRPRKVQVAALQASPPLDQDDRAFEVMDEFDGRSFRSGYSERSRLNSHGGRSRSWEDSPERGRPHERARSRERDLSRDRSRGRSLERGLDQDHARTRDRSRGRSLERGLDHDFGPSRDRDRDRSRGRSIDQDYERAYHRAYDPDYERAYSPEYRRGARHDARSRGPRSRSREHPHSRSPSPEPRGRPGPIGVLLMKSRANEEYGLRLGSQIFVKEMTRTGLATKDGNLHEGDIILKINGTVTENMSLTDARKLIEKSRGKLQLVVLRDSQQTLINIPSLNDSDSEIEDISEIESNRSFSPEERRHQYSDYDYHSSSEKLKERPSSREDTPSRLSRMGATPTPFKSTGDIAGTVVPETNKEPRYQEDPPAPQPKAAPRTFLRPSPEDEAIYGPNTKMVRFKKGDSVGLRLAGGNDVGIFVAGIQEGTSAEQEGLQEGDQILKVNTQDFRGLVREDAVLYLLEIPKGEMVTILAQSRADVYRDILACGRGDSFFIRSHFECEKETPQSLAFTRGEVFRVVDTLYDGKLGNWLAVRIGNELEKGLIPNKSRAEQMASVQNAQRDNAGDRADFWRMRGQRSGVKKNLRKSREDLTAVVSVSTKFPAYERVLLREAGFKRPVVLFGPIADIAMEKLANELPDWFQTAKTEPKDAGSEKSTGVVRLNTVRQIIEQDKHALLDVTPKAVDLLNYTQWFPIVIFFNPDSRQGVKTMRQRLNPTSNKSSRKLFDQANKLKKTCAHLFTATINLNSANDSWFGSLKDTIQHQQGEAVWVSEGKMEGMDDDPEDRMSYLTAMGADYLSCDSRLISDFEDTDGEGGAYTDNELDEPAEEPLVSSITRSSEPVQHEESIRKPSPEPRAQMRRAASSDQLRDNSPPPAFKPEPPKAKTQNKEESYDFSKSYEYKSNPSAVAGNETPGASTKGYPPPVAAKPTFGRSILKPSTPIPPQEGEEVGESSEEQDNAPKSVLGKVKIFEKMDHKARLQRMQELQEAQNARIEIAQKHPDIYAVPIKTHKPDPGTPQHTSSRPPEPQKAPSRPYQDTRGSYGSDAEEEEYRQQLSEHSKRGYYGQSARYRDTEL
On to B2, for which the binding entry is reported as “binds”.
